{"source": "patent US12503719B2", "about": "“Metabolomic characterization of microorganisms” (priority 2019, dated 2025)", "origin": "cited, not measured here", "settings": "published CLSI MIC used as test concentration; species not given; cited from earlier work", "note": "For at least one compound, name, drawing or mass did not settle the structure.", "data": [{"compound": "C[C@H]1COc2c(N3CCN(C)CC3)c(F)cc3c(=O)c(C(=O)O)cn1c23", "note": "[LVX, levofloxacin]", "values": [{"measurement": "minimum inhibitory concentrations", "result": 2, "unit": "µg/mL"}]}]}
